Laboratory results taken from ChEMBL document CHEMBL5674883, “The Heterochromatin Landscape in Migrating Cells and the Importance of H3K27me3 for Associated Transcriptome Alterations” (Cells, 2018).
This continues a long series; more values of the same kind are listed elsewhere.

Amino acid sequences for entries named in this document (tags omitted).
UniProt Q61188, whole entry: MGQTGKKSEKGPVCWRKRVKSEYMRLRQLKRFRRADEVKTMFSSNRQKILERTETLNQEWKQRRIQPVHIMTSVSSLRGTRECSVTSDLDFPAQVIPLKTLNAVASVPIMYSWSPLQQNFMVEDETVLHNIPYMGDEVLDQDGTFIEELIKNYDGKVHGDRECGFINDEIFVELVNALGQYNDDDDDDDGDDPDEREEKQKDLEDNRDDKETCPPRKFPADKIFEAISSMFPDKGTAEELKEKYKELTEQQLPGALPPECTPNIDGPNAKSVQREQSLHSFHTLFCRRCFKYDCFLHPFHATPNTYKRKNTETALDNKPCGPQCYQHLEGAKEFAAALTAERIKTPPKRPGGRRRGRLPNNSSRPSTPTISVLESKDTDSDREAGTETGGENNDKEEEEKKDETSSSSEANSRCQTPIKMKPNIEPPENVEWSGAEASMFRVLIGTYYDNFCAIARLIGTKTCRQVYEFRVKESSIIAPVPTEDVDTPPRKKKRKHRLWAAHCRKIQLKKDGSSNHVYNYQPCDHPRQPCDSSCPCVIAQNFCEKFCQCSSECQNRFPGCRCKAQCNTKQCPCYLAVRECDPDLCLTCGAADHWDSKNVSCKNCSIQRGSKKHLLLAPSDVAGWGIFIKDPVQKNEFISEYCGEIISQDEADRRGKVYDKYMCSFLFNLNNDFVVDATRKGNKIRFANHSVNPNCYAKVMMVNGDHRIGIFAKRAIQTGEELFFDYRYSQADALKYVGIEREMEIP

Key:
Assay type in all cases: cell-based
[1] = target: T1, RNA polymerase II (Mus musculus) (UniProt P08775+Q8CFI7+P97760+A0A3Q4L2S8+Q80UW8+P61219+P62488+Q923G2+P60898+O08740+Q63871+P62876); experiment: Inhibition of RNA polymerase II in mouse B16-F1 migrating cells assessed as fold change in Lrrc17-RNA stability at 0.1 mM measured by ChIP-seq analysis relative to control cells
[2] = target: T1, RNA polymerase II (Mus musculus); experiment: Inhibition of RNA polymerase II in mouse B16-F1 migrating cells assessed as fold change in Slc16a3-RNA stability at 0.1 mM measured by ChIP-seq analysis relative to control cells
[3] = target: T1, RNA polymerase II (Mus musculus); experiment: Inhibition of RNA polymerase II in mouse B16-F1 migrating cells assessed as fold change in Rpl36-RNA stability at 0.1 mM measured by ChIP-seq analysis relative to control cells
[4] = target: T1, RNA polymerase II (Mus musculus); experiment: Inhibition of RNA polymerase II in mouse B16-F1 migrating cells assessed as fold change in Fam174b-RNA stability at 0.1 mM measured by ChIP-seq analysis relative to control cells
[5] = target: T1, RNA polymerase II (Mus musculus); experiment: Inhibition of RNA polymerase II in mouse B16-F1 migrating cells assessed as fold change in Eno1-RNA stability at 0.1 mM measured by ChIP-seq analysis relative to control cells
[6] = target: T1, RNA polymerase II (Mus musculus); experiment: Inhibition of RNA polymerase II in mouse B16-F1 migrating cells assessed as fold change in Mrps18a-RNA stability at 0.1 mM measured by ChIP-seq analysis relative to control cells
[7] = target: T1, RNA polymerase II (Mus musculus); experiment: Inhibition of RNA polymerase II in mouse B16-F1 migrating cells assessed as fold change in Glrb-RNA stability at 0.1 mM measured by ChIP-seq analysis relative to control cells
[8] = target: T1, RNA polymerase II (Mus musculus); experiment: Inhibition of RNA polymerase II in mouse B16-F1 migrating cells assessed as fold change in Rbm28-RNA stability at 0.1 mM measured by ChIP-seq analysis relative to control cells
[9] = target: T1, RNA polymerase II (Mus musculus); experiment: Inhibition of RNA polymerase II in mouse B16-F1 migrating cells assessed as fold change in Sox5-RNA stability at 0.1 mM measured by ChIP-seq analysis relative to control cells
[10] = target: T1, RNA polymerase II (Mus musculus); experiment: Inhibition of RNA polymerase II in mouse B16-F1 migrating cells assessed as fold change in Nln-RNA stability at 0.1 mM measured by ChIP-seq analysis relative to control cells
[11] = target: T1, RNA polymerase II (Mus musculus); experiment: Inhibition of RNA polymerase II in mouse B16-F1 migrating cells assessed as fold change in Usp1-RNA stability at 0.1 mM measured by ChIP-seq analysis relative to control cells
[12] = target: T1, RNA polymerase II (Mus musculus); experiment: Inhibition of RNA polymerase II in mouse B16-F1 migrating cells assessed as fold change in Dtl-RNA stability at 0.1 mM measured by ChIP-seq analysis relative to control cells
[13] = target: T1, RNA polymerase II (Mus musculus); experiment: Inhibition of RNA polymerase II in mouse B16-F1 migrating cells assessed as fold change in Sfxn5-RNA stability at 0.1 mM measured by ChIP-seq analysis relative to control cells
[14] = target: T1, RNA polymerase II (Mus musculus); experiment: Inhibition of RNA polymerase II in mouse B16-F1 migrating cells assessed as fold change in Spopl-RNA stability at 0.1 mM measured by ChIP-seq analysis relative to control cells
[15] = target: T1, RNA polymerase II (Mus musculus); experiment: Inhibition of RNA polymerase II in mouse B16-F1 migrating cells assessed as fold change in Ckap2-RNA stability at 0.1 mM measured by ChIP-seq analysis relative to control cells
[16] = target: T1, RNA polymerase II (Mus musculus); experiment: Inhibition of RNA polymerase II in mouse B16-F1 migrating cells assessed as fold change in Hsp90aa1-RNA stability at 0.1 mM measured by ChIP-seq analysis relative to control cells
[17] = target: T1, RNA polymerase II (Mus musculus); experiment: Inhibition of RNA polymerase II in mouse B16-F1 migrating cells assessed as fold change in Fmr1-RNA stability at 0.1 mM measured by ChIP-seq analysis relative to control cells
[18] = target: T1, RNA polymerase II (Mus musculus); experiment: Inhibition of RNA polymerase II in mouse B16-F1 migrating cells assessed as fold change in Cir1-RNA stability at 0.1 mM measured by ChIP-seq analysis relative to control cells
[19] = target: T1, RNA polymerase II (Mus musculus); experiment: Inhibition of RNA polymerase II in mouse B16-F1 migrating cells assessed as fold change in Gls-RNA stability at 0.1 mM measured by ChIP-seq analysis relative to control cells
[20] = target: T1, RNA polymerase II (Mus musculus); experiment: Inhibition of RNA polymerase II in mouse B16-F1 migrating cells assessed as fold change in Mtm1-RNA stability at 0.1 mM measured by ChIP-seq analysis relative to control cells
[21] = target: T1, RNA polymerase II (Mus musculus); experiment: Inhibition of RNA polymerase II in mouse B16-F1 migrating cells assessed as fold change in Kif11-RNA stability at 0.1 mM measured by ChIP-seq analysis relative to control cells
[22] = target: T1, RNA polymerase II (Mus musculus); experiment: Inhibition of RNA polymerase II in mouse B16-F1 migrating cells assessed as fold change in 6720489N17Rik-RNA stability at 0.1 mM measured by ChIP-seq analysis relative to control cells
[23] = target: Histone-lysine N-methyltransferase EZH2 (Mus musculus) (UniProt Q61188); experiment: Inhibition of EZH2 in mouse B16-F1 migrating cells assessed as fold change in H3K27me3-independent regulated Prdm16-mRNA expression at 3 uM measured by ChIP-seq analysis relative to control cells
[24] = target: Histone-lysine N-methyltransferase EZH2 (Mus musculus) (UniProt Q61188); experiment: Inhibition of EZH2 in mouse B16-F1 migrating cells assessed as fold change in H3K27me3-buffered regulated Fancm-mRNA expression at 3 uM measured by ChIP-seq analysis relative to control cells
[25] = target: Histone-lysine N-methyltransferase EZH2 (Mus musculus) (UniProt Q61188); experiment: Inhibition of EZH2 in mouse B16-F1 migrating cells assessed as fold change in H3K27me3-buffered regulated Snhg17-mRNA expression at 3 uM measured by ChIP-seq analysis relative to control cells
[26] = target: Histone-lysine N-methyltransferase EZH2 (Mus musculus) (UniProt Q61188); experiment: Inhibition of EZH2 in mouse B16-F1 migrating cells assessed as fold change in H3K27me3-buffered regulated Zc2hc1a-mRNA expression at 3 uM measured by ChIP-seq analysis relative to control cells
[27] = target: Histone-lysine N-methyltransferase EZH2 (Mus musculus) (UniProt Q61188); experiment: Inhibition of EZH2 in mouse B16-F1 migrating cells assessed as fold change in H3K27me3-buffered regulated Zfp125-mRNA expression at 3 uM measured by ChIP-seq analysis relative to control cells
[28] = target: Histone-lysine N-methyltransferase EZH2 (Mus musculus) (UniProt Q61188); experiment: Inhibition of EZH2 in mouse B16-F1 migrating cells assessed as fold change in H3K27me3-buffered regulated Peg10-mRNA expression at 3 uM measured by ChIP-seq analysis relative to control cells
[29] = target: Histone-lysine N-methyltransferase EZH2 (Mus musculus) (UniProt Q61188); experiment: Inhibition of EZH2 in mouse B16-F1 migrating cells assessed as fold change in H3K27me3-buffered regulated Dse-mRNA expression at 3 uM measured by ChIP-seq analysis relative to control cells
[30] = target: Histone-lysine N-methyltransferase EZH2 (Mus musculus) (UniProt Q61188); experiment: Inhibition of EZH2 in mouse B16-F1 migrating cells assessed as fold change in H3K27me3-buffered regulated Magix-mRNA expression at 3 uM measured by ChIP-seq analysis relative to control cells

What does the source list for `OC[C@H]1O[C@@H](n2cnc3cc(Cl)c(Cl)cc32)[C@H](O)[C@@H]1O`?
log2FC [1]: 1.76; log2FC [2]: 0.98; log2FC [3]: 0.55; log2FC [4]: 0.49; log2FC [5]: 0.47; log2FC [6]: 0.43; log2FC [7]: -0.44; log2FC [8]: -0.46; log2FC [9]: -0.46; log2FC [10]: -0.51; log2FC [11]: -0.57; log2FC [12]: -0.6; log2FC [13]: -0.62; log2FC [14]: -0.63; log2FC [15]: -0.63; log2FC [16]: -0.64; log2FC [17]: -0.68; log2FC [18]: -0.69; log2FC [19]: -0.69; log2FC [20]: -0.84; log2FC [21]: -0.88; log2FC [22]: -1.97

`CCCc1cc(C)[nH]c(=O)c1CNC(=O)c1cc(-c2ccnc(N3CCN(C)CC3)c2)cc2c1cnn2C(C)C` was tested. Which log2FC [23] did it give?
The log2FC was -0.54.

What about the log2FC [24] of the same compound?
Its log2FC is -0.4.

And the log2FC [25]?
The log2FC was -0.41.

What about the log2FC [26] of the same compound?
Its log2FC is -0.41.

What about the log2FC [27] of the same compound?
Its log2FC is -0.48.

What about the log2FC [28] of the same compound?
The log2FC was -0.49.

And the log2FC [29]?
Its log2FC is -0.57.

What about the log2FC [30] of the same compound?
The log2FC was -0.58.
